# Reference: PubChem BioAssay AID504327 (National Center for Advancing Translational Sciences (NCATS), 2011)
# Protein sequences, listed by entry. Tags and fused reporters are not part of them.
# UniProt Q92830, whole entry, looked up: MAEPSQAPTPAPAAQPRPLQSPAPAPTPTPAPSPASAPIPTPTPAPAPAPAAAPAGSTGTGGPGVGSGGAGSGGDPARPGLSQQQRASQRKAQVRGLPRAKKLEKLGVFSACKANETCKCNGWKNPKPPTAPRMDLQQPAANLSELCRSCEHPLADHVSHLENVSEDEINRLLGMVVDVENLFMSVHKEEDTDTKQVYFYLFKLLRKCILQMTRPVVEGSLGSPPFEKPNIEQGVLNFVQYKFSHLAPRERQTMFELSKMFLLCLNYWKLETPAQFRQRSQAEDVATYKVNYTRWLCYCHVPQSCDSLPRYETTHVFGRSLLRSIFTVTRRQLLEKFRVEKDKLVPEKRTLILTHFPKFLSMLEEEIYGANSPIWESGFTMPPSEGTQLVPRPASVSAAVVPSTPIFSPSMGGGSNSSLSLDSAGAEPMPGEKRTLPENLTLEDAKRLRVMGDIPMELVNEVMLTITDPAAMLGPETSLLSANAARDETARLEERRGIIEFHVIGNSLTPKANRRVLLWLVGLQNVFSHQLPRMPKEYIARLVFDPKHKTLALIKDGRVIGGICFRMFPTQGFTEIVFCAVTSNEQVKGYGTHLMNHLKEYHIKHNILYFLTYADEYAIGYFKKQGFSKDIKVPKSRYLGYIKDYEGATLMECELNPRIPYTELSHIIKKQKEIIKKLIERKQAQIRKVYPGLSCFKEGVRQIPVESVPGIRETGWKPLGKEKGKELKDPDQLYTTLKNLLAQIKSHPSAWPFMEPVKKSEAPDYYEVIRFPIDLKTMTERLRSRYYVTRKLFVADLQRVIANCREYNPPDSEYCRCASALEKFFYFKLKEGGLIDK
# Screen size: about 390,000 compounds; about 820 (0.21%) were called active. This list was built around the results that the source calls inconclusive (neither active nor inactive); the mix of calls is not that of the screen. Calls come from the whole dose curve; as a rule, active = well fitted inhibition curve with a large enough effect; inconclusive = small, poorly fitted or top-dose-only effect, or another doubt; inactive = no such curve, though single readings can be large or run the other way. Potencies beside an inconclusive call are fits to weak or partial responses and may not hold up.
# Biological target: Histone acetyltransferase KAT2A (Homo sapiens) (UniProt Q92830)
# Assay: qHTS Assay for Inhibitors of GCN5L2
# Conditions: GCN5L2 HAT assay, ThioGlo1 CoA-SH fluorescence; activity change, negative = inhibition: at 58.9 µM (top of the series) unless noted
# Method in brief: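 ThioGlo1-coupled HAT assay: 20nM GCN5L2, 70uM acetyl-CoA, 75uM H3(1-25) peptide, pH 7.5. Fluorescence read at 340/540nm at start and after 20 min at room temperature.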
# % is set by controls: 0 for no effect and ±100 for the full control effect; potency is the fitted concentration of half-maximal effect.
Compound,Potency,"activity change, negative = inhibition"
CSc1nnc(-c2ccco2)c(-c2ccco2)n1,"inconclusive: 22.4 µM [inhibitor, partial curve]",
COc1cc2ccccc2cc1C(=O)N/N=C/c1ccc2c(c1)OCO2,"inconclusive: 39.8 µM [inhibitor, single point]",
C=CCOC(=O)C1C(=O)CC(C)(O)C(C(=O)OCC=C)C1c1ccc(N(C)C)cc1 (configuration not stated),,inactive: -1.17%
CC(C)(C)OC(=O)N1CCC(c2c(C(=O)NCc3cccs3)cnn2-c2cccc(F)c2)CC1,,inactive: -0.303%
Cc1ccccc1C1c2[nH]c3ccccc3c2C[C@H]2C(=O)N(c3ccccc3C(=O)NCCCN3CCOCC3)C(=O)N12 (some centres not stated),"inconclusive: 15.8 µM [inhibitor, single point]",
CCc1nnc(NC(=O)CN2CCN(c3ccccc3OC)CC2)s1,"inconclusive: 0.562 µM [inhibitor, single point]",
COc1ccccc1N=C1SCC(=O)N1c1ccccc1OC,,inactive: -8.03%
CCn1c(OC)nc2c1c(=O)n(C)c(=O)n2C,,inactive: -18%
CCOC(=O)C1=C(C)N(C)C(=S)NC1c1ccccc1Cl (configuration not stated),"inconclusive: 7.08 µM [inhibitor, single point]",
CN1CCN(CCCNC(=O)CCC(=O)N2CCOc3ccccc32)CC1,"inconclusive: 0.708 µM [inhibitor, single point]",
CN1CCN(c2ccc([N+](=O)[O-])cc2NC(=O)c2ccco2)CC1,"inconclusive: 28.2 µM [inhibitor, partial curve]",
NC(=O)N/N=C/c1c(Sc2nnnn2-c2ccccc2)nc2ccccn2c1=O,"inconclusive: 39.8 µM [inhibitor, single point]",
C=CC(=O)NN(C)c1ncc(C(F)(F)F)cc1Cl,,inactive: -5.19%
COc1ccc2c(c1)cc(C(=O)N[C@@H](CCSC)C(=O)N1CCC[C@H]1C(=O)O)n2C,"inconclusive: 22.4 µM [inhibitor, partial curve, poor fit]",
CNc1nc(Sc2cccc(C(F)(F)F)c2)cc(C(F)(F)F)n1,"inconclusive: 0.891 µM [inhibitor, single point]",
CNC(=O)COC(=O)c1ccccc1NC(=O)c1ccco1,"inconclusive: 0.708 µM [inhibitor, single point]",
CC(C)(C)c1ccc(C(=O)CSc2ncn[nH]2)cc1,"inconclusive: 28.2 µM [inhibitor, single point]",
O=C1Cc2cc(S(=O)(=O)N3CCN(c4cccc(Cl)c4)CC3)ccc2N1,"inconclusive: 39.8 µM [inhibitor, single point]",
COc1ccccc1/C=C1\S/C(=N/NC(=O)c2cccc(Br)c2)NC1=O,"inconclusive: 22.4 µM [inhibitor, single point]",
O=C(NC1=C(NC2CCS(=O)(=O)C2)C(=O)c2ccccc2C1=O)c1ccccc1 (configuration not stated),,inactive: 9.69%
Cc1cc(C(F)F)n2nc(C(=O)Nc3sc4c(c3C#N)CCC4)nc2n1,,inactive: -12.4%
NC(=S)Nc1ccccc1Br,"inconclusive: 7.08 µM [inhibitor, single point]",
COc1ccc2nc(/N=C\N(C)C)sc2c1,"inconclusive: 35.5 µM [inhibitor, single point]",

# Pulled by structure from above, five records:
Compound,Potency,"activity change, negative = inhibition"
CNC(=O)COC(=O)c1ccccc1NC(=O)c1ccco1,"inconclusive: 0.708 µM [inhibitor, single point]",
C=CCOC(=O)C1C(=O)CC(C)(O)C(C(=O)OCC=C)C1c1ccc(N(C)C)cc1 (configuration not stated),,inactive: -1.17%
CCc1nnc(NC(=O)CN2CCN(c3ccccc3OC)CC2)s1,"inconclusive: 0.562 µM [inhibitor, single point]",
Cc1cc(C(F)F)n2nc(C(=O)Nc3sc4c(c3C#N)CCC4)nc2n1,,inactive: -12.4%
Cc1ccccc1C1c2[nH]c3ccccc3c2C[C@H]2C(=O)N(c3ccccc3C(=O)NCCCN3CCOCC3)C(=O)N12 (some centres not stated),"inconclusive: 15.8 µM [inhibitor, single point]",

# Later entries

Compound,Potency,"activity change, negative = inhibition"
O=C1C=CC(=O)c2c(O)c(Cl)c(Cl)c(O)c21,active: 20 µM,
COC(=O)c1ccc(N2C(=O)Cc3cc(OC)c(OC)cc3C2c2ccc(F)cc2)cc1 (configuration not stated),,inactive: -3.21%
O=C(c1ccc(NC2=NC3CS(=O)(=O)CC3S2)cc1)N1CCN(c2ccccc2)CC1 (configuration not stated),"inconclusive: 7.08 µM [inhibitor, single point]",
O=C(Nc1ccc(C(=O)O)cc1)/C(=C\c1ccc2c(c1)OCO2)NC(=O)c1ccc(Br)o1,,inactive: -8.06%
COc1cccc(NC(=O)Cc2nnc(SCC(=O)NC(C)c3ccccc3)n2C)c1 (configuration not stated),"inconclusive: 39.8 µM [inhibitor, single point]",
N#Cc1ccccc1N1CCN(C(=O)c2ccc(NC(=O)c3ccc(Br)o3)cc2)CC1,"inconclusive: 28.2 µM [inhibitor, single point]",
C[C@@H]1NC(=O)[C@H](CC(N)=O)NC(=O)c2cc([N+](=O)[O-])cc(I)c2OCC[C@@H](C(=O)NC(CC(=O)O)C(N)=O)NC1=O (some centres not stated),,inactive: -8.45%
O=C1CCC(C(=O)N2CCSCC2)CN1Cc1ccc(Cl)cc1 (configuration not stated),,inactive: -1.75%
CCc1nnc(NC(=O)CSc2sc3c(O)cc(=O)[nH]c3c2C#N)s1,"inconclusive: 7.94 µM [inhibitor, partial curve]",
C=CCNC(=S)N1CC2(C)CN(C(=S)NCC=C)CC(C)(C1)C2=O,active: 28.2 µM,
CCC(=O)N1CCc2cc(S(=O)(=O)CCC(=O)N3CCCC(C)C3)ccc21 (configuration not stated),"inconclusive: 39.8 µM [inhibitor, single point]",
COc1ccccc1NS(=O)(=O)c1ccc(C(=O)Nc2ncccc2O)cc1,,inactive: 1.44%
COc1ccc(C2c3ccc(O)cc3Oc3ncn(Cc4ccco4)c(=N)c32)cc1 (configuration not stated),,inactive: -0.197%
CC(=O)Nc1ccc(C=NNc2ccc(S(=O)(=O)Nc3ccccc3C(=O)O)cc2[N+](=O)[O-])cc1,"inconclusive: 39.8 µM [inhibitor, single point]",
Cc1cccc(CSc2nnc(-c3cccs3)n2Cc2ccco2)c1,"inconclusive: 39.8 µM [inhibitor, single point]",
O=C(O)c1ccc(CNCc2ccccc2Cl)cc1,"inconclusive: 44.7 µM [inhibitor, single point]",
CC(=O)c1ccc(NC(=O)CSC2=Nc3ccccc3N=C(c3ccc(F)cc3)C2)cc1,"inconclusive: 39.8 µM [inhibitor, single point]",
CN(CCOc1ccccc1)C(=O)C1CCC(=O)N(CCc2ccc(Cl)cc2)C1 (configuration not stated),,inactive: -1.02%
COc1ccc(O)c(C(=O)c2cc(SCC(=O)O)c3nc4sc5c(c4c(=O)n3c2)CCCC5)c1,"inconclusive: 20 µM [inhibitor, partial curve]",
CN(CC(=O)Nc1cccc(F)c1)C(=O)c1cccc(-n2cccc2)c1,"inconclusive: 31.6 µM [inhibitor, single point]",
C[C@H](CO)N1C[C@H](C)[C@@H](CN(C)Cc2ccc(-c3ccccc3)cc2)Oc2c(NS(=O)(=O)c3ccccc3)cccc2C1=O,,inactive: -6.53%
CCc1ccc(/C=C2\SC(=S)N(CCCC(=O)Nc3ccc(C(=O)O)cc3)C2=O)cc1,"inconclusive: 39.8 µM [inhibitor, single point]",
Cc1ccc(-c2nn(C(C)(C)C)c3ncnc(NS(=O)(=O)c4ccc([N+](=O)[O-])cc4)c23)cc1,"inconclusive: 0.708 µM [inhibitor, single point]",

Compound,Potency,"activity change, negative = inhibition"
COc1ccc2c(/C=N/NS(=O)(=O)c3ccc(C)cc3)c[nH]c2c1,,inactive: -11.6%
Cc1cc(C)c2nc3s/c(=C/c4ccccc4)c(=O)n3c2c1,"inconclusive: 35.5 µM [inhibitor, single point]",
COc1ccc(S(=O)(=O)c2c[nH]c(=S)[nH]c2=O)cc1Cl,"inconclusive: 0.891 µM [inhibitor, full curve, poor fit]",
O=C(CSc1n[nH]c(-c2ccccc2Cl)n1)NCc1cccc(C(=O)O)c1,"inconclusive: 39.8 µM [inhibitor, single point]",
CC(C)(C)c1ccc(S(=O)(=O)/N=C2\C=C(NS(=O)(=O)c3ccccc3)C(=O)c3ccccc32)cc1,"inconclusive: 31.6 µM [inhibitor, single point]",
Cc1ccc(SCc2[nH]nc3c2C2(CCSCC2)C(C#N)=C(N)O3)cc1,"inconclusive: 39.8 µM [inhibitor, single point]",
Cc1cc(/C=C2\C(=O)NN(c3ccccc3)C2=O)c(C)n1-c1ccccc1O,"inconclusive: 0.562 µM [inhibitor, single point]",
Cc1ccc(NC(=O)c2cc3ccccc3o2)cc1Cl,"inconclusive: 20 µM [inhibitor, single point]",
NNC(=O)c1cccn(Cc2cccc(C(F)(F)F)c2)c1=O,"inconclusive: 39.8 µM [inhibitor, single point]",
COC(CNC(=O)C(=O)NCC1CCCN1S(=O)(=O)c1cccs1)OC (configuration not stated),"inconclusive: 7.08 µM [inhibitor, single point]",
COc1ccccc1/C=C/C(=O)OC(C)CN1CCOCC1 (configuration not stated),"inconclusive: 0.891 µM [inhibitor, single point]",
Cc1ccc(C(=O)CSc2nsc(C)c2C#N)cc1,,inactive: 1.29%
CC1(C)CC(C(N)=S)CCO1 (configuration not stated),"inconclusive: 39.8 µM [inhibitor, single point]",
CC(NC(=O)C1CCCN1S(=O)(=O)c1cccc2nsnc12)c1ccccc1 (configuration not stated),"inconclusive: 0.708 µM [inhibitor, full curve, poor fit]",
CC1CCCN(Cc2cccc(Oc3ccccc3)c2)C1 (configuration not stated),"inconclusive: 25.1 µM [inhibitor, single point]",
CCOC(=O)c1c(-c2ccc(OC)cc2)cn2ccccc12,"inconclusive: 2.82 µM [inhibitor, full curve, poor fit]",
CC1CCN=C(N)S1 (configuration not stated),"inconclusive: 39.8 µM [inhibitor, single point]",
CCOC(=O)c1c(NC(=O)/C=C/c2ccc(C)o2)sc(C)c1C,,inactive: -4.11%
CN(C)c1ccc(C(=S)N2CCN(c3ccc([N+](=O)[O-])cc3)CC2)cc1,"inconclusive: 39.8 µM [inhibitor, partial curve]",
C(=N\Nc1nc2ccccc2s1)/c1ccccn1,"inconclusive: 0.708 µM [inhibitor, single point]",
CC(OC(=O)c1ccc(C(C)(C)C)cc1)C(=O)NC1CCCCC1C (configuration not stated),"inconclusive: 0.112 µM [inhibitor, full curve, poor fit]",
